Reference: PubChem BioAssay AID1259425 (University of Nebraska Medical Center, 2018)

Screen: 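Compare each knockdown with KSR1 silencing using changes in marker transcripts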 (primary screen)
Cells: HCT116 human colon cancer cells
Reagent: siRNA pool against human genes, 50 nM siRNA
Measurement: 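mRNA of six signature genes measured together by branched-DNA assay after 50 nM siRNA pool, blank removed, divided by geometric mean of two housekeeping genes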
Direction: BNIP3L mRNA: higher = more BNIP3L transcript after knockdown; NDRG1 mRNA: higher = more NDRG1 transcript after knockdown
Shown is an unselected part of about 14,000 reagents. Not all columns of the deposit are shown. Reagent sequences are not shown. Not stated in the record: the time to read-out.

With ABCC8 (GeneID 6833), how do the results read?
BNIP3L mRNA, set 1: 0.207; NDRG1 mRNA, set 1: 0.218

For DPH2 (GeneID 1802), what does the deposit list?
BNIP3L mRNA, set 1: 0.14; NDRG1 mRNA, set 1: 0.24

How did the screen score PITX3 (GeneID 5309)?
BNIP3L mRNA, set 1: 0.0505; NDRG1 mRNA, set 1: 0.0494

Which result is listed for UBA2 (GeneID 10054)?
BNIP3L mRNA, set 1: 0.313; NDRG1 mRNA, set 1: 0.32

Which result is listed for PIGG (GeneID 54872)?
BNIP3L mRNA, set 1: 0.108; NDRG1 mRNA, set 1: 0.216

With RNASEL (GeneID 6041), how do the results read?
BNIP3L mRNA, set 1: 0.0746; NDRG1 mRNA, set 1: 0.199

What is on record for VGLL4 (GeneID 9686)?
BNIP3L mRNA, set 1: 0.159; NDRG1 mRNA, set 1: 0.153

How did the screen score ATIC (GeneID 471)?
BNIP3L mRNA, set 1: 0.0493; NDRG1 mRNA, set 1: 0.109

For SRPX (GeneID 8406), what does the deposit list?
BNIP3L mRNA, set 1: 0.0525; NDRG1 mRNA, set 1: 0.0911

For HOXC13 (GeneID 3229), how do the results read?
BNIP3L mRNA, set 1: 0.0626; NDRG1 mRNA, set 1: 0.141

Which result is listed for CCDC28B (GeneID 79140)?
BNIP3L mRNA, set 1: 0.0746; NDRG1 mRNA, set 1: 0.125

What did the screen give for FBXO6 (GeneID 26270)?
BNIP3L mRNA, set 1: 0.126; NDRG1 mRNA, set 1: 0.27

With SLC43A1 (GeneID 8501), how do the results read?
BNIP3L mRNA, set 1: 0.142; NDRG1 mRNA, set 1: 0.142

What is on record for LAMB4 (GeneID 22798)?
BNIP3L mRNA, set 1: 0.104; NDRG1 mRNA, set 1: 0.286

How did the screen score SYTL2 (GeneID 54843)?
BNIP3L mRNA, set 1: 0.0429; NDRG1 mRNA, set 1: 0.138

Which result is listed for FBXW4 (GeneID 6468)?
BNIP3L mRNA, set 1: 0.0468; NDRG1 mRNA, set 1: 0.28

With ZNF33A (GeneID 7581), what does the deposit list?
BNIP3L mRNA, set 1: 0.0759; NDRG1 mRNA, set 1: 0.104

How did the screen score PNRC2 (GeneID 55629)?
BNIP3L mRNA, set 1: 0.0369; NDRG1 mRNA, set 1: 0.112

How did the screen score COL21A1 (GeneID 81578)?
BNIP3L mRNA, set 1: 0.092; NDRG1 mRNA, set 1: 0.981

For IL33R (GeneID 9173), what does the deposit list?
BNIP3L mRNA, set 1: 0.153; NDRG1 mRNA, set 1: 0.265

What did the screen give for IFIH1 (GeneID 64135)?
BNIP3L mRNA, set 1: 0.0801; NDRG1 mRNA, set 1: 0.154

For WNT8B (GeneID 7479), how do the results read?
BNIP3L mRNA, set 1: 0.0644; NDRG1 mRNA, set 1: 0.244

How did the screen score RORB (GeneID 6096)?
BNIP3L mRNA, set 1: 0.0717; NDRG1 mRNA, set 1: 0.105

Which result is listed for RTL10 (GeneID 79680)?
BNIP3L mRNA, set 1: 0.216; NDRG1 mRNA, set 1: 0.909

With TOP3A (GeneID 7156), how do the results read?
BNIP3L mRNA, set 1: 0.0923; NDRG1 mRNA, set 1: 0.346

What did the screen give for SLAMF1 (GeneID 6504)?
BNIP3L mRNA, set 1: 0.0778; NDRG1 mRNA, set 1: 0.254

With PDCD10 (GeneID 11235), how do the results read?
BNIP3L mRNA, set 1: 0.0802; NDRG1 mRNA, set 1: 0.119

How did the screen score ARRB1 (GeneID 408)?
BNIP3L mRNA, set 1: 0.0946; NDRG1 mRNA, set 1: 0.174

Only “BNIP3L mRNA, set 1” (2 entries from above):
CCDC28B (GeneID 79140)	0.0746
FBXO6 (GeneID 26270)	0.126
